± gives the standard deviation of the averaged measurements. The list shows a part of the results, in another mix than the full data. Most values lie at the level of the controls, where differences are scatter.

Amino acid sequences for entries named in this document (tags omitted). A change or cut given only in a name is not applied to a line headed by its entry.
UniProt Q06323: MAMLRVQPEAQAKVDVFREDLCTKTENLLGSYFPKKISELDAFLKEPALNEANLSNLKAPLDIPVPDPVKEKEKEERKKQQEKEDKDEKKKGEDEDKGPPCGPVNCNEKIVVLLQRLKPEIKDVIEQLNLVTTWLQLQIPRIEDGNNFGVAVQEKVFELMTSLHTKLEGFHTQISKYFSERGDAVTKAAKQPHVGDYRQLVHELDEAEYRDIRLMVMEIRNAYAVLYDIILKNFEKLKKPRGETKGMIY
UniProt Q96KA5: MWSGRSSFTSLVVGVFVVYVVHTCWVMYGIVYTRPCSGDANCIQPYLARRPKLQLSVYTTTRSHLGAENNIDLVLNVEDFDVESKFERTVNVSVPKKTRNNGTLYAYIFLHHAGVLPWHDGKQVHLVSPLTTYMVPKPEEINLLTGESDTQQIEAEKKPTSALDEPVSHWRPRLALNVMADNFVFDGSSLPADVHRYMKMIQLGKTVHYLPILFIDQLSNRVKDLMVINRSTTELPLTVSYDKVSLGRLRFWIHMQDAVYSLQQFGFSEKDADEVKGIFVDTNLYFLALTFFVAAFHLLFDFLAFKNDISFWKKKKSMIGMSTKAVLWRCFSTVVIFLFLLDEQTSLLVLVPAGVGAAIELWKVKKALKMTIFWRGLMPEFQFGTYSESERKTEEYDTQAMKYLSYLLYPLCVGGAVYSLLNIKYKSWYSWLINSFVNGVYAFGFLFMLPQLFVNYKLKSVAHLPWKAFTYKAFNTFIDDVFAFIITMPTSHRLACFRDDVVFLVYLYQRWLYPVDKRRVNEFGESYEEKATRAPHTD
UniProt Q6P2D0: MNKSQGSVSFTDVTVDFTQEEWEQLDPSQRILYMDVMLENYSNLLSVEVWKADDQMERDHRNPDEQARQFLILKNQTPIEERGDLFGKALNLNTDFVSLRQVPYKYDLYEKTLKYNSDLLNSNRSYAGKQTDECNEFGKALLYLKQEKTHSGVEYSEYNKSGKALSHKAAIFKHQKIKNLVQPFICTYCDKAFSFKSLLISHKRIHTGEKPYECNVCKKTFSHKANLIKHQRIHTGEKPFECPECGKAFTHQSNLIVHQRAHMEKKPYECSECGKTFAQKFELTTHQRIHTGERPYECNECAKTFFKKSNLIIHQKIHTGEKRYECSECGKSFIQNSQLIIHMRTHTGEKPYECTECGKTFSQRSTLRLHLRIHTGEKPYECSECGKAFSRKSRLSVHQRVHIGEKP
UniProt Q92622: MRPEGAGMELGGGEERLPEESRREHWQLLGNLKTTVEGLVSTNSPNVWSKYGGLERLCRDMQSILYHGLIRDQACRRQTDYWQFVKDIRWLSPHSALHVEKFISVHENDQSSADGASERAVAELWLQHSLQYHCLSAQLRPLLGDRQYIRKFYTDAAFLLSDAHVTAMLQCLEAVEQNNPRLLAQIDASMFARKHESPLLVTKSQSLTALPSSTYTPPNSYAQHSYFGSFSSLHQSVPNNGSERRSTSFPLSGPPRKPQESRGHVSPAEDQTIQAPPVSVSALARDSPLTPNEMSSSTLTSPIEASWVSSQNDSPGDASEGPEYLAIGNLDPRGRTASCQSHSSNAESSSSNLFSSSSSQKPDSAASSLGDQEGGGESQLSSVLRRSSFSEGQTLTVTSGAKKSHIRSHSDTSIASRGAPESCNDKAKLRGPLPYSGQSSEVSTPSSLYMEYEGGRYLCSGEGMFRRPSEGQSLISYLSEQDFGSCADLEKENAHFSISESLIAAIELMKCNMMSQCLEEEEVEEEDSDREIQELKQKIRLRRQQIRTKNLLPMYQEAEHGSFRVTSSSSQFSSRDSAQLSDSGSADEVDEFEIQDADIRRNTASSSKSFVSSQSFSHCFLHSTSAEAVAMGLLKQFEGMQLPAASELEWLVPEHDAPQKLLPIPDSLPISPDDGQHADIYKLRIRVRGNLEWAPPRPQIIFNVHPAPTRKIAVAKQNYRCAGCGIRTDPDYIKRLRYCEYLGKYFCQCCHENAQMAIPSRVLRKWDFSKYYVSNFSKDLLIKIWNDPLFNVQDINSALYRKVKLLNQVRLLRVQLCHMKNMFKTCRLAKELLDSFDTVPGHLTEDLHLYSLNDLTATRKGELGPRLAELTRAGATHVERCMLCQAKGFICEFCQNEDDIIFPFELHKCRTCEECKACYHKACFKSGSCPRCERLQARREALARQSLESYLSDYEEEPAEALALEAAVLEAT
UniProt P54098: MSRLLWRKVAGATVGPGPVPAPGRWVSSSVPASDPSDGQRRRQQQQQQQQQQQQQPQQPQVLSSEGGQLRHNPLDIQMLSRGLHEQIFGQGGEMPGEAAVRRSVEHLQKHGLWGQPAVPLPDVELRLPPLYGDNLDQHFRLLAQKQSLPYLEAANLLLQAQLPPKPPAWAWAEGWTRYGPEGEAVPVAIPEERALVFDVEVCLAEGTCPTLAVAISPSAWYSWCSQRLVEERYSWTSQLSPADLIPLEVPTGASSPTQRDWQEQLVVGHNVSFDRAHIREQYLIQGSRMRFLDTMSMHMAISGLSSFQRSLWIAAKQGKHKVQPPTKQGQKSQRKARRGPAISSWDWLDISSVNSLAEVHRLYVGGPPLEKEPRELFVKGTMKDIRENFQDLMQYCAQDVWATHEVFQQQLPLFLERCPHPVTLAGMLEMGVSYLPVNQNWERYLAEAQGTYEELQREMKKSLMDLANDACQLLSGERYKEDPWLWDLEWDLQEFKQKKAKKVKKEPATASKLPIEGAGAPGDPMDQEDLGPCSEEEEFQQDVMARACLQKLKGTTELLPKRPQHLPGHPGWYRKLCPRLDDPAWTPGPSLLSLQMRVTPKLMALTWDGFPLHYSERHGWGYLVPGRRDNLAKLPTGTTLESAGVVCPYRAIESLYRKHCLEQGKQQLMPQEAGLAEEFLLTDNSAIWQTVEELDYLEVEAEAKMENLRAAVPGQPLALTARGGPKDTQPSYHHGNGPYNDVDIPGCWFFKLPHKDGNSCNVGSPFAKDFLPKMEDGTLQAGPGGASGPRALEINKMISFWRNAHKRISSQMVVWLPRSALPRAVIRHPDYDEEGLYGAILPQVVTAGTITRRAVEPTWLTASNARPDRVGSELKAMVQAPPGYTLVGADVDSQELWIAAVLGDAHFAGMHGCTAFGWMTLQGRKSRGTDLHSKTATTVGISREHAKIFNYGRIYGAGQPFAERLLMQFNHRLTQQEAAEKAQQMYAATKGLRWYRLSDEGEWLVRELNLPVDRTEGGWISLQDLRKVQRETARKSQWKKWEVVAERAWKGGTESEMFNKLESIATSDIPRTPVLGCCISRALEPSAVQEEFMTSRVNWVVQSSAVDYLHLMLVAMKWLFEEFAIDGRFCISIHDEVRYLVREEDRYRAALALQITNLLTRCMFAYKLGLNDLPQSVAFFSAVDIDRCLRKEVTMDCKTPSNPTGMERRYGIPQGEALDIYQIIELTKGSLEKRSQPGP
UniProt Q15032: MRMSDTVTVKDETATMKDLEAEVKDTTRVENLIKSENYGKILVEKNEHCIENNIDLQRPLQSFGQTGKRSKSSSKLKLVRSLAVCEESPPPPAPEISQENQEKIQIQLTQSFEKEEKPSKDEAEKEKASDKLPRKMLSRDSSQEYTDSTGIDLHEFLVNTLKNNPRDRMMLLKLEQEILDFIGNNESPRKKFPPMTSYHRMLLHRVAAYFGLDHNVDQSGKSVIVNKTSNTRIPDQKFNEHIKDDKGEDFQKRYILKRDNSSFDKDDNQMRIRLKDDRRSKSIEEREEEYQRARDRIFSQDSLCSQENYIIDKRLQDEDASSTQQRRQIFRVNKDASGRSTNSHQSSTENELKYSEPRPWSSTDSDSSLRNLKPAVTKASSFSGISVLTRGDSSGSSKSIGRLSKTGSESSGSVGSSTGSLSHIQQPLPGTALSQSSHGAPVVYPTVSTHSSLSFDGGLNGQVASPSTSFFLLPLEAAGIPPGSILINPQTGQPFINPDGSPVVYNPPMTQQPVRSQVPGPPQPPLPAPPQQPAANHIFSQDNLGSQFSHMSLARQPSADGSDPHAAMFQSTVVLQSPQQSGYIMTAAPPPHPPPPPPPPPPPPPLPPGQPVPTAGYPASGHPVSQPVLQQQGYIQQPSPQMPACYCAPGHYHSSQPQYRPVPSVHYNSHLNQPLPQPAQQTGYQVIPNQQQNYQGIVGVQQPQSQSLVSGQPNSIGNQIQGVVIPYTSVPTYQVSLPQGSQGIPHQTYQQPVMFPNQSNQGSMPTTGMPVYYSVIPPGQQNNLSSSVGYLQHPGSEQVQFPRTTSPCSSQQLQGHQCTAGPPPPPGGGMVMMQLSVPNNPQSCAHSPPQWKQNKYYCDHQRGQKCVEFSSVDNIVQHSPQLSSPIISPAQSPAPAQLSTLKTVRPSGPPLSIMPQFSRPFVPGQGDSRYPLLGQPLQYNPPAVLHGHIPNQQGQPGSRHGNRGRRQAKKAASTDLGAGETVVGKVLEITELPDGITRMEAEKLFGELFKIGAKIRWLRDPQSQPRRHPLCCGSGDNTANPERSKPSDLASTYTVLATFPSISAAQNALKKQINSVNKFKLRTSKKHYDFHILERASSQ
UniProt Q9BSR8: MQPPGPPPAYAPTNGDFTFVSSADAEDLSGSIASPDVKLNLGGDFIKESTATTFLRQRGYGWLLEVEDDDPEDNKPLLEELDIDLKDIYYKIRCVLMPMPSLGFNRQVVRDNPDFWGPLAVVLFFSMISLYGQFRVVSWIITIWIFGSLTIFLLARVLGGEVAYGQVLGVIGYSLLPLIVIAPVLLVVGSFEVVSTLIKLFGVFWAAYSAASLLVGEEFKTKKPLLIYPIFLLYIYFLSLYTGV
UniProt Q13569: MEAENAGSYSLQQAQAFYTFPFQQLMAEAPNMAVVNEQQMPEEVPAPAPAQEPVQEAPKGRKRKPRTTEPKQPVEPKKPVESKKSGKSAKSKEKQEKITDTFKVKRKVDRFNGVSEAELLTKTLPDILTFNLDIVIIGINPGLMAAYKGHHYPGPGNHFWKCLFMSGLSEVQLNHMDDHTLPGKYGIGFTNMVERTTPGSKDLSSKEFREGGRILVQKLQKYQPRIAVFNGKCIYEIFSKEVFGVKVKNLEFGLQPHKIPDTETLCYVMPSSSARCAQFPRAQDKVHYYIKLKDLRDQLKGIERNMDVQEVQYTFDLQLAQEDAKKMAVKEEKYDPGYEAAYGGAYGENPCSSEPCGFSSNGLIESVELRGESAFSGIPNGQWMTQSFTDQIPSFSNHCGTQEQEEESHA
UniProt Q9H9Q2: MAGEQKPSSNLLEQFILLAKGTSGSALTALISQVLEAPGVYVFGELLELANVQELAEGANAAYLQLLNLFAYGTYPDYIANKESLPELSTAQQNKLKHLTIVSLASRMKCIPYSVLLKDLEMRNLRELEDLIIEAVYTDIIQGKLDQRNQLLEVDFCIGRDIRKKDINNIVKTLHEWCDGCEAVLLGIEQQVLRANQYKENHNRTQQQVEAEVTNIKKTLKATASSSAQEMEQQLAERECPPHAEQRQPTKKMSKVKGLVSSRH
UniProt Q9UPN4: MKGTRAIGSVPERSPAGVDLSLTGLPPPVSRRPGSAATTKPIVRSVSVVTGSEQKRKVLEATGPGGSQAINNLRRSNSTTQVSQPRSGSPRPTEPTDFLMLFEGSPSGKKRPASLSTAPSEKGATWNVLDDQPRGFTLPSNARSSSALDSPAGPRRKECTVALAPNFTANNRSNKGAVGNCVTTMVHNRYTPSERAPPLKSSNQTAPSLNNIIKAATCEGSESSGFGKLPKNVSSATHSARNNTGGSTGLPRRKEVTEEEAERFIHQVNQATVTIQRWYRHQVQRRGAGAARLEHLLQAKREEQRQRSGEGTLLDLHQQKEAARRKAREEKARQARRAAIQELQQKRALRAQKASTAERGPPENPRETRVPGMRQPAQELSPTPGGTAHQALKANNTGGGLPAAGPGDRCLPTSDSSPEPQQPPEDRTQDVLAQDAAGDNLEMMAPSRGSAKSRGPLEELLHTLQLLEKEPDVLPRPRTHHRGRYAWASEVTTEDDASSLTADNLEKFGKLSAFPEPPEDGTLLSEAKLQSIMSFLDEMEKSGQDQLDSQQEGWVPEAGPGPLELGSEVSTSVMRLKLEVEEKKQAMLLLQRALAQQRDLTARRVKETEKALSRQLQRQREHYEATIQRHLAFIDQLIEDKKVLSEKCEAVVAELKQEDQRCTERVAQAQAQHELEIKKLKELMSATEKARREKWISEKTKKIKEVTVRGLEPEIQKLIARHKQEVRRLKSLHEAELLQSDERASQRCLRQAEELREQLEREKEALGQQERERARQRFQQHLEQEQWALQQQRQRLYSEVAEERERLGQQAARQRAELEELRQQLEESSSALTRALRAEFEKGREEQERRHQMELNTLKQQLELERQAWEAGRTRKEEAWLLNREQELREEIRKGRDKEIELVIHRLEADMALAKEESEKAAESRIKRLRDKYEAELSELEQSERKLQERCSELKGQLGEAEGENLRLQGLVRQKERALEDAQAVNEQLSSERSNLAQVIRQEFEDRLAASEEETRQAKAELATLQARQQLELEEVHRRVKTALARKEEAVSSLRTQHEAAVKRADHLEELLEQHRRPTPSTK

Compound in the first test: Nc1ncnc2c1ncn2[C@@H]1O[C@H](COP(=O)(O)OP(=O)(O)NP(=O)(O)O)[C@@H](O)[C@H]1O [adenylyl imidodiphosphate]
Put plainly: NP40-soluble protein abundance relative to vehicle (solubility fold change) (ratio); higher = more soluble protein in presence of AMP-PNP. The conditions noted are these: concentration: 0.1mM. A digest of the protocol: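 Values are fold changes against the detergent-processed vehicle, based on vsn-normalised intensities. Jurkat crude lysate was treated at eight concentrations from 0.1 to 10 mM (10 min at room temperature, then 3 min at 37 °C), solubilised with 0.8% NP40 and benzonase, ultracentrifuged and analysed by TMT-labelled LC-MS/MS over three independent experiments.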
Regarding “J3KQ72 and related entries (UniProt Q9NRD1)”, the NP40-soluble protein abundance stood at 0.9964 ± 0.0056.
For “H0YKK6 and related entries (UniProt Q06323)”, the NP40-soluble protein abundance came out at 0.951 ± 0.029.
On the same count and under the same terms, the figure for “H3BQW8 and related entries (UniProt Q16775)” is 0.998 ± 0.029; for “G5E9Z2 and related entries (UniProt Q96KA5)” it is 1.022 ± 0.01; for “H0Y7L2 and related entries (UniProt Q96N67)” it is 1.01 ± 0.021.
The same measure, in the same setting: the result for “J3KNQ1 and related entries (UniProt Q6P2D0)” reads 0.966 ± 0.039; that for “I3L3C2 and related entries (UniProt Q96MX0)”, 0.958 ± 0.026.
Same read-out and setting: the result for “J3KRD0 and related entries (UniProt Q86W34)” reads 0.96 ± 0.026; that for “I3VM54 and related entries (UniProt Q9Y2K7)”, 1 ± 0.028; that for “J3KP15 and related entries (UniProt Q01130)”, 1.04 ± 0.053.
“H0Y360 and related entries (UniProt Q01433)”: the NP40-soluble protein abundance worked out at 1.02 ± 0.017.
The same measure, in the same setting: the figure for “H7BYY2 and related entries (UniProt Q6W2J9)” is 0.994 ± 0.03.
Same read-out and setting: the result for “H7C1I0 and related entries (UniProt Q96K37)” reads 1.024 ± 0.0063.
Same read-out and setting: the figure for “H3BMQ0 and related entries (UniProt P49815)” is 0.9806 ± 0.0077; for “H3BLV9 and related entries (UniProt Q96SB4)” it is 1.04 ± 0.025.
For “H0Y6E6 and related entries (UniProt Q92622)”, the NP40-soluble protein abundance amounted to 0.996 ± 0.014.
Still for that read-out and setting: the figure for “H0YD36 and related entries (UniProt P54098)” is 0.998 ± 0.015.
Turning to “H7C488 and related entries (UniProt Q9NQ48)”, the NP40-soluble protein abundance stood at 0.992 ± 0.091.
On the same count and under the same terms, the result for “H0Y4T4 and related entries (UniProt Q5SW79)” reads 0.997 ± 0.058; that for “J3KNW7 and related entries (UniProt Q9Y592)”, 1.008 ± 0.0047.
Still for that read-out and setting: the figure for “H7C561 and related entries (UniProt Q15637)” is 0.9705 ± 0.0034; for “I3L448 and related entries (UniProt Q5TC12)” it is 1 ± 0.017; for “H0YBR0 and related entries (UniProt Q96Q05)” it is 1.12 ± 0.23.
Still for that read-out and setting: the result for “J3KPP4 and related entries (UniProt O95232)” reads 1.05 ± 0.044; that for “J3KS51 and related entries (UniProt O75376)”, 0.996 ± 0.032; that for “H7C2F9 and related entries (UniProt Q15032)”, 0.975 ± 0.028.
For the target “G8JLB3 and related entries (UniProt Q9Y606)”, the NP40-soluble protein abundance came out at 1.01 ± 0.034.
Same read-out and setting: the result for “H7C0D5 and related entries (UniProt Q9BSR8)” reads 0.982 ± 0.055; that for “J3KQJ1 and related entries (UniProt Q8NBJ7)”, 1.01 ± 0.024.
The same measure, in the same setting: the figure for “G8JL98 and related entries (UniProt Q13569)” is 0.963 ± 0.021.
Turning to “J3KNS1 and related entries (UniProt Q9UPW5)”, the NP40-soluble protein abundance was 1 ± 0.026.
Same read-out and setting: the figure for “J3KQ34 and related entries (UniProt Q9H9Q2)” is 0.972 ± 0.058.
Regarding “H7BYJ3 and related entries (UniProt O14578)”, the NP40-soluble protein abundance was found to be 0.99 ± 0.017.
Same read-out and setting: the result for “J3KSP6 and related entries (UniProt Q8N0W3)” reads 1.02 ± 0.021.
Same read-out and setting: the figure for “I3L2J8 and related entries (UniProt Q9UPN4)” is 0.996 ± 0.031; for “I3L0L6 and related entries (UniProt Q9H6Y7)” it is 1.1 ± 0.1.
The same measure, in the same setting: the result for “I3L1P8 and related entries (UniProt Q02978)” reads 1.02 ± 0.035.
In the case of “J3KN10 and related entries (UniProt P42356)”, the NP40-soluble protein abundance came out at 1.04 ± 0.061.

Staying with this test, now noted: concentration: 0.5mM.
For “J3KQ72 and related entries (UniProt Q9NRD1)”, the NP40-soluble protein abundance is 0.9729 ± 0.0076.
Still for that read-out and setting: the result for “H0YKK6 and related entries (UniProt Q06323)” reads 1 ± 0.041.
For the target “H3BQW8 and related entries (UniProt Q16775)”, the NP40-soluble protein abundance stood at 1.05 ± 0.074.
Still for that read-out and setting: the figure for “G5E9Z2 and related entries (UniProt Q96KA5)” is 1.03 ± 0.037.
“H0Y7L2 and related entries (UniProt Q96N67)”: the NP40-soluble protein abundance was 0.977 ± 0.038.
Still for that read-out and setting: the result for “J3KNQ1 and related entries (UniProt Q6P2D0)” reads 1.012 ± 0.0039; that for “I3L3C2 and related entries (UniProt Q96MX0)”, 0.973 ± 0.05.
The same measure, in the same setting: the figure for “J3KRD0 and related entries (UniProt Q86W34)” is 0.984 ± 0.025.
On the same count and under the same terms, the figure for “I3VM54 and related entries (UniProt Q9Y2K7)” is 1.01 ± 0.053; for “J3KP15 and related entries (UniProt Q01130)” it is 1.04 ± 0.038.
For the target “H0Y360 and related entries (UniProt Q01433)”, the NP40-soluble protein abundance was 1.008 ± 0.0054.
Consider “H7BYY2 and related entries (UniProt Q6W2J9)”, for which the NP40-soluble protein abundance was determined as 0.946 ± 0.09.
Still for that read-out and setting: the figure for “H7C1I0 and related entries (UniProt Q96K37)” is 1.02 ± 0.032; for “H3BMQ0 and related entries (UniProt P49815)” it is 0.967 ± 0.027; for “H3BLV9 and related entries (UniProt Q96SB4)” it is 1.02 ± 0.037.
The same measure, in the same setting: the result for “H0Y6E6 and related entries (UniProt Q92622)” reads 1.03 ± 0.057; that for “H0YD36 and related entries (UniProt P54098)”, 0.97 ± 0.043; that for “H7C488 and related entries (UniProt Q9NQ48)”, 0.989 ± 0.09.
Same read-out and setting: the figure for “H0Y4T4 and related entries (UniProt Q5SW79)” is 0.99 ± 0.044.
With “J3KNW7 and related entries (UniProt Q9Y592)”, the NP40-soluble protein abundance came to 0.997 ± 0.011.
Regarding “H7C561 and related entries (UniProt Q15637)”, the NP40-soluble protein abundance is 1.01 ± 0.025.
On the same count and under the same terms, the result for “I3L448 and related entries (UniProt Q5TC12)” reads 0.9801 ± 0.0085.
The same measure, in the same setting: the result for “H0YBR0 and related entries (UniProt Q96Q05)” reads 0.945 ± 0.034.
In the case of “J3KPP4 and related entries (UniProt O95232)”, the NP40-soluble protein abundance is 1.03 ± 0.022.
Turning to “J3KS51 and related entries (UniProt O75376)”, the NP40-soluble protein abundance amounted to 0.998 ± 0.043.
In the case of “H7C2F9 and related entries (UniProt Q15032)”, the NP40-soluble protein abundance turned out to be 0.965 ± 0.029.
As for “G8JLB3 and related entries (UniProt Q9Y606)”, the NP40-soluble protein abundance came out at 0.982 ± 0.023.
On the same count and under the same terms, the figure for “H7C0D5 and related entries (UniProt Q9BSR8)” is 0.971 ± 0.022; for “J3KQJ1 and related entries (UniProt Q8NBJ7)” it is 1 ± 0.029; for “G8JL98 and related entries (UniProt Q13569)” it is 1 ± 0.016.
The same measure, in the same setting: the figure for “J3KNS1 and related entries (UniProt Q9UPW5)” is 0.979 ± 0.031; for “J3KQ34 and related entries (UniProt Q9H9Q2)” it is 0.984 ± 0.088; for “H7BYJ3 and related entries (UniProt O14578)” it is 0.975 ± 0.027.
Still for that read-out and setting: the figure for “J3KSP6 and related entries (UniProt Q8N0W3)” is 0.967 ± 0.041; for “I3L2J8 and related entries (UniProt Q9UPN4)” it is 0.981 ± 0.034.
With “I3L0L6 and related entries (UniProt Q9H6Y7)”, the NP40-soluble protein abundance amounted to 1.05 ± 0.053.
The same measure, in the same setting: the result for “I3L1P8 and related entries (UniProt Q02978)” reads 0.968 ± 0.029; that for “J3KN10 and related entries (UniProt P42356)”, 1.03 ± 0.029.

Source of the values: the supplement of paper PMC6411743.
